Results on 29 targets are retold here after the supplement of paper PMC10849652.

Sequences of proteins named here, by UniProt entry; tags and fusion partners are left off. A change or cut given only in a name is not applied to a line headed by its entry.
UniProt Q3T906: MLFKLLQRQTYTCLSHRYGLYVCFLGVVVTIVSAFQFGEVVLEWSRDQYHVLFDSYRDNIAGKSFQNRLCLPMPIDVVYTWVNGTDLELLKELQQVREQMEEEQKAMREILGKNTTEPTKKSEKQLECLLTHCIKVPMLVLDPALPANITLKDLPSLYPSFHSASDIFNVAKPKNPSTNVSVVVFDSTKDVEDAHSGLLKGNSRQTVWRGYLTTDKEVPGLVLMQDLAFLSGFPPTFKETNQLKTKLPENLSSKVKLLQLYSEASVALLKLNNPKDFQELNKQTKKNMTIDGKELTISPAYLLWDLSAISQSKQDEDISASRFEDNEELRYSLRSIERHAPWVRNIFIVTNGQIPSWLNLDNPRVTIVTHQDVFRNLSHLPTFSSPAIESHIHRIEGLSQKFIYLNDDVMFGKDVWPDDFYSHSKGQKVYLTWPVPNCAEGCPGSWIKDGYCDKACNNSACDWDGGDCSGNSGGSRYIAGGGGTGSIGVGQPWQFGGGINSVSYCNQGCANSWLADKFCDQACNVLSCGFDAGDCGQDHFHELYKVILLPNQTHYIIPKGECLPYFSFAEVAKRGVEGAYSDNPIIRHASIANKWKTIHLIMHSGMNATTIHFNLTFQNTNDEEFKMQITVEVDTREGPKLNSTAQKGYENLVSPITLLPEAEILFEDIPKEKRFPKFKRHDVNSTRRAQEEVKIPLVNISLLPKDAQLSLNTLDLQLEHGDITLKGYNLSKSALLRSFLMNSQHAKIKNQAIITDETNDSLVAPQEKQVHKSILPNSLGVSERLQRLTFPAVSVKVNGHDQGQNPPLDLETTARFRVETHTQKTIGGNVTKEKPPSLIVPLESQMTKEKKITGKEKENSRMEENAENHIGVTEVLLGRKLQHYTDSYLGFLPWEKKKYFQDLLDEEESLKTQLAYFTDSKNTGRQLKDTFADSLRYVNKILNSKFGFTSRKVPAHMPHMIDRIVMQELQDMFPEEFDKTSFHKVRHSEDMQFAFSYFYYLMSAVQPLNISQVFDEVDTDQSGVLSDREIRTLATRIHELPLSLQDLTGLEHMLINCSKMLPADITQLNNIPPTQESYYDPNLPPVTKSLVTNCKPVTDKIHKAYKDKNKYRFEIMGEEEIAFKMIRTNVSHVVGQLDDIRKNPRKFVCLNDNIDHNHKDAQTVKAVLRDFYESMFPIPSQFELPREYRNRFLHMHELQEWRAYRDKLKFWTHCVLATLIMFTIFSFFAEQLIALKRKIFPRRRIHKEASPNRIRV
UniProt Q14956: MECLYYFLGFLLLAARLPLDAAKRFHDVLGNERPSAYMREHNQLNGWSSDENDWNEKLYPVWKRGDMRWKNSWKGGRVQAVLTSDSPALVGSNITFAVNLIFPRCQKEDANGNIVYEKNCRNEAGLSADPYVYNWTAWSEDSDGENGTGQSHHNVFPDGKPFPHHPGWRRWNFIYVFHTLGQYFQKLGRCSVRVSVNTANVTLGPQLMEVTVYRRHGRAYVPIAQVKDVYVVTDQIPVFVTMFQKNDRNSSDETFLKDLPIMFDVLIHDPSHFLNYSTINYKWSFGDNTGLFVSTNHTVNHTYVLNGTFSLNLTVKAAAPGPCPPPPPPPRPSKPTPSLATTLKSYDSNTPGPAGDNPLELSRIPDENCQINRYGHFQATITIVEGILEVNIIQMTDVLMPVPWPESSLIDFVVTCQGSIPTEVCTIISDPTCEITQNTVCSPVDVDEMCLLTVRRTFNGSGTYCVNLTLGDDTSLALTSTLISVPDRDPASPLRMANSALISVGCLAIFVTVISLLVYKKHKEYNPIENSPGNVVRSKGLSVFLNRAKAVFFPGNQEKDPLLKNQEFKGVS
UniProt I6L899: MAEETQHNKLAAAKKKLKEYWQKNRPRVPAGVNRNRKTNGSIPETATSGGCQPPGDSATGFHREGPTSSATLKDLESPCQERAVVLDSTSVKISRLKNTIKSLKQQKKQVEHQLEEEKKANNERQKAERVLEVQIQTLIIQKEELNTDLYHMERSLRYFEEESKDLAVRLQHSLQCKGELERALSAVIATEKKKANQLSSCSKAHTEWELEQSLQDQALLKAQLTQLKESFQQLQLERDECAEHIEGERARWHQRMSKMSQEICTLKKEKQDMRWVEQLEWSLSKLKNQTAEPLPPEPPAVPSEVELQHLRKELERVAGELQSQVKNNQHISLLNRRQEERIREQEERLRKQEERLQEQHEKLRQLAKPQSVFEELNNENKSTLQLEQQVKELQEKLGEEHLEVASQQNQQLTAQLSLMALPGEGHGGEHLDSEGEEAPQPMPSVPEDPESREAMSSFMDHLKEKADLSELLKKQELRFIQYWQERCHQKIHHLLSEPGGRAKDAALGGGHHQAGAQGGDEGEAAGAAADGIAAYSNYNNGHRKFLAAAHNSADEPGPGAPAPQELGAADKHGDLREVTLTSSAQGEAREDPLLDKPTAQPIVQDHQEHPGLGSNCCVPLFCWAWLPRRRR
UniProt Q99795: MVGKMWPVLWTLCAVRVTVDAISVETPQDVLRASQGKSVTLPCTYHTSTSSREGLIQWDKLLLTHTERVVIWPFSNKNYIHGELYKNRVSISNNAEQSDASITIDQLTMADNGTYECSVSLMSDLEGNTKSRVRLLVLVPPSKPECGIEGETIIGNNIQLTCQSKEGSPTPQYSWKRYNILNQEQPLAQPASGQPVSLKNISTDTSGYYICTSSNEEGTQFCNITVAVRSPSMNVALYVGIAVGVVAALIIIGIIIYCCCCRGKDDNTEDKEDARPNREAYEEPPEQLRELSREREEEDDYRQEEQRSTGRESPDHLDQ
UniProt P36959: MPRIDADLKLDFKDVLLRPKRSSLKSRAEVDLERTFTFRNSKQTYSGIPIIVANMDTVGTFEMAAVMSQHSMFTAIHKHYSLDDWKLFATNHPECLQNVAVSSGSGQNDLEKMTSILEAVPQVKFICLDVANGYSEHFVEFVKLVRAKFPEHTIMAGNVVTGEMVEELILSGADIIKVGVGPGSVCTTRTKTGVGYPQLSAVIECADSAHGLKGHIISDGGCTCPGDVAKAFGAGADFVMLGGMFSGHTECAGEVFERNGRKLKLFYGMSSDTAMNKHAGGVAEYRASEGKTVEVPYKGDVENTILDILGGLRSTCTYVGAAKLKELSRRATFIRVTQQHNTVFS
UniProt Q9UHW5, whole entry, looked up: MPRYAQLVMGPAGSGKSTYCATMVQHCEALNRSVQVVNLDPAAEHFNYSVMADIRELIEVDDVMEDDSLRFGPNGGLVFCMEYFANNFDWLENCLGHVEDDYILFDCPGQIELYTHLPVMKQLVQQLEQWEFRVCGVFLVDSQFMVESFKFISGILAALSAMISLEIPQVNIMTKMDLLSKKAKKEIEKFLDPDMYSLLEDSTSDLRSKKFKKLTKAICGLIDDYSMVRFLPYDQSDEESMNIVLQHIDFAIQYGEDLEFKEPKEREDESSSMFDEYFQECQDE
UniProt Q03113, whole entry, looked up: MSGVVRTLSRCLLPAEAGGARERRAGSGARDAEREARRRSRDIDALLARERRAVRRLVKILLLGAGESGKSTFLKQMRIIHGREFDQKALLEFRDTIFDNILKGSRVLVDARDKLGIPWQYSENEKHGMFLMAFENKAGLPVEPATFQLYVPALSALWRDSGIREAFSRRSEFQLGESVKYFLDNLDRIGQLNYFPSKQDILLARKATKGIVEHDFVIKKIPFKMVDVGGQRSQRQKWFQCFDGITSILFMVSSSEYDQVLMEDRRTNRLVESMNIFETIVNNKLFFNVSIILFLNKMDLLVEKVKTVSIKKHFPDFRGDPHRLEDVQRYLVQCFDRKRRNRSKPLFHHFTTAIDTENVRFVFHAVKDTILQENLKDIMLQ
UniProt P23378: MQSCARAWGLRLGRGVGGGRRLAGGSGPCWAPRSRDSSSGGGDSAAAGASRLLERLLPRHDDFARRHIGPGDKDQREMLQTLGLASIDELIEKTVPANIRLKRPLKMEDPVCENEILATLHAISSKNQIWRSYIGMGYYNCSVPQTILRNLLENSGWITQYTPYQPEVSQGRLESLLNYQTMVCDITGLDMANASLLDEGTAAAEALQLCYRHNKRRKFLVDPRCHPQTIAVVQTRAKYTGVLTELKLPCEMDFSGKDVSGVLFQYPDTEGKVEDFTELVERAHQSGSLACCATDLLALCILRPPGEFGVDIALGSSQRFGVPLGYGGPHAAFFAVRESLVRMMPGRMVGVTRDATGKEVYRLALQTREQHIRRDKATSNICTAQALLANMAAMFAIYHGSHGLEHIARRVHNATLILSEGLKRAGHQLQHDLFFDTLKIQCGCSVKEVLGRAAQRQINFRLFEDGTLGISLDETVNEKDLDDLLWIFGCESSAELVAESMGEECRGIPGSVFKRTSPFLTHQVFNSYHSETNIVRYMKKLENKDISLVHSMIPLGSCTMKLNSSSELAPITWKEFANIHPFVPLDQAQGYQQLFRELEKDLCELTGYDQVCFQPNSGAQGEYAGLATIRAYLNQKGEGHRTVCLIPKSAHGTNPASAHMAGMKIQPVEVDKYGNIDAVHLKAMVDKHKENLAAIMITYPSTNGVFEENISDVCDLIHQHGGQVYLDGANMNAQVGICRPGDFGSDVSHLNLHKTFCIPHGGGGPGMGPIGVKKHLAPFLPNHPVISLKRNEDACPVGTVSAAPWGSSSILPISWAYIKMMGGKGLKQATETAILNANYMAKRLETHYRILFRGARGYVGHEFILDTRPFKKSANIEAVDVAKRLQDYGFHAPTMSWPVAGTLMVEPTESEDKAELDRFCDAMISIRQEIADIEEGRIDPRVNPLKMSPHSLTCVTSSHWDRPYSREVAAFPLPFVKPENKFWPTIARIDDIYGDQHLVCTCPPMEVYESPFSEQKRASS
UniProt Q9UBI6: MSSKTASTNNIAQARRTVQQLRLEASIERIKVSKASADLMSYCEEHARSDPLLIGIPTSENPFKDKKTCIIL
UniProt Q9BQQ3: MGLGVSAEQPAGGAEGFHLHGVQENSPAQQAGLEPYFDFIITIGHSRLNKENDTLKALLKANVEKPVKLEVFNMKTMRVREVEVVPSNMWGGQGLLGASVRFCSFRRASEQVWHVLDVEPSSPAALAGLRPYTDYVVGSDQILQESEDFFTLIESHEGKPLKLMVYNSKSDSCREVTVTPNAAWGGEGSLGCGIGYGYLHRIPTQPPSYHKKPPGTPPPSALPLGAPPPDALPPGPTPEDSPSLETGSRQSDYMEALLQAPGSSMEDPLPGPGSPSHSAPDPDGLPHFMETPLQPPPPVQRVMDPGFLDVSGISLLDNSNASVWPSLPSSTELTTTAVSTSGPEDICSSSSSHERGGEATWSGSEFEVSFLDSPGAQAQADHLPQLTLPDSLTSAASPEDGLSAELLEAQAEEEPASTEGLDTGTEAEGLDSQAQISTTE
UniProt P63092, whole entry, looked up: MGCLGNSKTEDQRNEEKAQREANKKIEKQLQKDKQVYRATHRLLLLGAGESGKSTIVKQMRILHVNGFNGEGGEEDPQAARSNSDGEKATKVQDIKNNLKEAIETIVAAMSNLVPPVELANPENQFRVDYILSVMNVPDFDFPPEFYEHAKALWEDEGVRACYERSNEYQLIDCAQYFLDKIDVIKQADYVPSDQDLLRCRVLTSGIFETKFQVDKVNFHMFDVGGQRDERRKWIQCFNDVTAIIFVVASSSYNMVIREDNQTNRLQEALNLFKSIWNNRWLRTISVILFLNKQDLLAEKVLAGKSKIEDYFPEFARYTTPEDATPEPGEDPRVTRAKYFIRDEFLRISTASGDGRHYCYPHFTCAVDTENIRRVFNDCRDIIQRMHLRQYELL
UniProt P63096, whole entry, looked up: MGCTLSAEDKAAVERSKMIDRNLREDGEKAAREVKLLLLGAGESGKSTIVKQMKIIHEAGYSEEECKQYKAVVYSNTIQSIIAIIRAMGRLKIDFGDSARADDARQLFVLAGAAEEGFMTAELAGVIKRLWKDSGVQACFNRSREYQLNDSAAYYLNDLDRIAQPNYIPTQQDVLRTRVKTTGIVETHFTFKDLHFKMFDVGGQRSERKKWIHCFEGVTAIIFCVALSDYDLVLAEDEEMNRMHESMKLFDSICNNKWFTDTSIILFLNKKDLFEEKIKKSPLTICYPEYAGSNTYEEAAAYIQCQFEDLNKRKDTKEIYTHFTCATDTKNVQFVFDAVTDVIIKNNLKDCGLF
UniProt Q96I76: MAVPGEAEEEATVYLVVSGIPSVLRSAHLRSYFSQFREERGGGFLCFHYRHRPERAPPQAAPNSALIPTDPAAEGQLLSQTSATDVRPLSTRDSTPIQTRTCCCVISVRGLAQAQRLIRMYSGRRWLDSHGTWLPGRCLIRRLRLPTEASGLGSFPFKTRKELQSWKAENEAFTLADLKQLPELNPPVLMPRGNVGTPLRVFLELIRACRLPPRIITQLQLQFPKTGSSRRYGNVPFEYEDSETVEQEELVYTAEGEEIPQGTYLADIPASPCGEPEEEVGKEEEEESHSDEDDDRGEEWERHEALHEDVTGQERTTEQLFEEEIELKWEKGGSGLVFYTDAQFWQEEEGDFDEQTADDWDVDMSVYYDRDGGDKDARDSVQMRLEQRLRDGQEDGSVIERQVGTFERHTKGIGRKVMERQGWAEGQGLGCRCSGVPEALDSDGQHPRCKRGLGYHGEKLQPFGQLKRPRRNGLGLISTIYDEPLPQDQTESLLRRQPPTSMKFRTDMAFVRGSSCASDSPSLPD

The other results are listed elsewhere or left out.

Compound in one experiment: Cc1ccc(NC(=O)c2ccc(CN3CC[C@H](N(C)C)C3)c(C(F)(F)F)c2)cc1Nc1nccc(-c2cncnc2)n1 [bafetinib]
Put plainly: log2 fold change, soluble protein after heating vs DMSO (PISA); higher = thermal stabilisation; K562 lysate, 10 uM; active = over 0.2 and 3.5 SD of the protein, either way, in both replicates (recomputed). An outline of the steps: (§1)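 Pellets of K562 cells were dounce-homogenised in PBS pH 7.4 with 1 mM MgCl2, and the crude extract was held at 1 mg/mL protein for a 30 min treatment with 10 μM compound. Aliquots were heated for 3 min over 48°C-58°C and pooled before NP-40 was added to 0.5% at 4°C. The supernatant from 21,000xg for 90 min was quantified by TMTpro 16plex LC-MS/MS with channel sums equalised. Values are reported from duplicates as log-two fold change in thermal stability relative to solvent controls.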
For GNPTAB (UniProt Q3T906), the log2 fold change is inactive: 0.18.

Turning to GOLGA4 (UniProt Q13439), the log2 fold change was inactive: 0.

With GHDC (UniProt Q8N2G8), the log2 fold change is inactive: -0.079.

Turning to GGH (UniProt Q92820), the log2 fold change is inactive: 0.078.

As to GNPAT (UniProt O15228), the log2 fold change is inactive: -0.106.

As for GPNMB (UniProt Q14956), the log2 fold change is inactive: 0.083.

Take GLS isoform 3 (UniProt O94925): the log2 fold change was inactive: -0.015.

For GLTP (UniProt Q9NZD2), the log2 fold change was inactive: 0.05.

As for GPRASP2 (UniProt Q96D09), the log2 fold change was inactive: 0.095.

For GLCE (UniProt O94923), the log2 fold change was inactive: -0.055.

GNAS isoform 2 (UniProt Q5JWF2): the log2 fold change is inactive: -0.005.

As to GPR89A (UniProt B7ZAQ6), the log2 fold change is inactive: -0.027.

For GOLGA8R (UniProt I6L899), the log2 fold change is inactive: 0.144.

Regarding GOSR1 (UniProt E9PCW1), the log2 fold change was inactive: -0.196.

In the case of GPA33 (UniProt Q99795), the log2 fold change is inactive: -0.051.

GMPR (UniProt P36959): the log2 fold change was inactive: -0.002.

GPN3 isoform 2 (UniProt Q9UHW5): the log2 fold change is inactive: 0.024.

On to GNA12 (UniProt Q03113), for which the log2 fold change is inactive: -0.562.

As to GLB1 (UniProt P16278), the log2 fold change was inactive: -0.03.

As to GLDC (UniProt P23378), the log2 fold change was inactive: 0.301.

Compound in a further experiment: Cc1cccc(CC(=O)N2CCc3c2ccc(-c2cn(C)c4ncnc(N)c24)c3F)n1
Described as above. The procedure, abridged: as §1
As to GNPTAB (UniProt Q3T906), the log2 fold change is inactive: 0.085.

With GOLIM4 (UniProt F8W785), the log2 fold change is inactive: -0.028.

In the case of GHDC (UniProt Q8N2G8), the log2 fold change is inactive: 0.005.

For the target GGH (UniProt Q92820), the log2 fold change is inactive: 0.085.

For the target GNPAT (UniProt O15228), the log2 fold change was inactive: 0.145.

On to GNG12 (UniProt Q9UBI6), for which the log2 fold change is inactive: -0.04.

As for GPNMB (UniProt Q14956), the log2 fold change is inactive: 0.765.

For GLS isoform 3 (UniProt O94925), the log2 fold change is inactive: 0.046.

On to GLTP (UniProt Q9NZD2), for which the log2 fold change was inactive: -0.166.

With GLCE (UniProt O94923), the log2 fold change is inactive: 0.207.

As to GINM1 (UniProt Q9NU53), the log2 fold change was inactive: 0.427.

As for GPRC5C isoform 2 (UniProt Q9NQ84), the log2 fold change was inactive: 0.036.

As for GPN2 (UniProt Q9H9Y4), the log2 fold change is inactive: 0.106.

In the case of GPR89A (UniProt B7ZAQ6), the log2 fold change is inactive: 0.088.

As to GOSR1 (UniProt E9PCW1), the log2 fold change is inactive: 0.034.

For the target GPA33 (UniProt Q99795), the log2 fold change is inactive: 0.554.

Turning to GMPR (UniProt P36959), the log2 fold change was inactive: -0.079.

Turning to GORASP1 (UniProt Q9BQQ3), the log2 fold change was inactive: -0.028.

On to GPN3 isoform 2 (UniProt Q9UHW5), for which the log2 fold change was inactive: 0.01.

Regarding GNAS isoform 3 (UniProt P63092), the log2 fold change was inactive: -0.035.

Take GLB1 (UniProt P16278): the log2 fold change is inactive: 0.008.

As to GNAI1 (UniProt P63096), the log2 fold change is inactive: -0.097.

Take GPATCH3 (UniProt Q96I76): the log2 fold change was inactive: -0.268.
